Earlier results on 1 compound are cited in US6348491B1 (National Science Council, priority 1999, dated 2002).

For `CC(=O)O[C@H]1C(=O)[C@@]2(C)[C@H]([C@H](OC(=O)c3ccccc3)[C@]3(O)C[C@H](OC(=O)[C@H](O)[C@@H](NC(=O)c4ccccc4)c4ccccc4)C(C)=C1C3(C)C)[C@]1(OC(C)=O)CO[C@@H]1C[C@@H]2O` [paclitaxel], the solubility in water entry was “about 0.01 mg/ml”.
